Experimental data published in article doi:10.1101/2025.07.24.666385.
No constants are given. Whether binding was seen depends on the method and setting. In cells and extracts the contact can be indirect. Some binding calls cover weakened binding; strength is not graded here. Tags and fused reporters may be left off the sequences shown.

Target: DPP9-short (reference isoform), YFP-tagged (human), Q86TI2
Experiment: co-IP
Settings: remark: other sources report otherwise

B1: FLAG-tagged NLRP1, Q9C000 1-1473 (protein)
chain: MAGGAWGRLACYLEFLKKEELKEFQLLLANKAHSRSSSGETPAQPEKTSGMEVASYLVAQYGEQRAWDLALHTWEQMGLRSLCAQAQEGAGHSPSFPYSPSEPHLGSPSQPTSTAVLMPWIHELPAGCTQGSERRVLRQLPDTSGRRWREISASLLYQALPSSPDHESPSQESPNAPTSTAVLGSWGSPPQPSLAPREQEAPGTQWPLDETSGIYYTEIREREREKSEKGRPPWAAVVGTPPQAHTSLQPHHHPWEPSVRESLCSTWPWKNEDFNQKFTQLLLLQRPHPRSQDPLVKRSWPDYVEENRGHLIEIRDLFGPGLDTQEPRIVILQGAAGIGKSTLARQVKEAWGRGQLYGDRFQHVFYFSCRELAQSKVVSLAELIGKDGTATPAPIRQILSRPERLLFILDGVDEPGWVLQEPSSELCLHWSQPQPADALLGSLLGKTILPEASFLITARTTALQNLIPSLEQARWVEVLGFSESSRKEYFYRYFTDERQAIRAFRLVKSNKELWALCLVPWVSWLACTCLMQQMKRKEKLTLTSKTTTTLCLHYLAQALQAQPLGPQLRDLCSLAAEGIWQKKTLFSPDDLRKHGLDGAIISTFLKMGILQEHPIPLSYSFIHLCFQEFFAAMSYVLEDEKGRGKHSNCIIDLEKTLEAYGIHGLFGASTTRFLLGLLSDEGEREMENIFHCRLSQGRNLMQWVPSLQLLLQPHSLESLHCLYETRNKTFLTQVMAHFEEMGMCVETDMELLVCTFCIKFSRHVKKLQLIEGRQHRSTWSPTMVVLFRWVPVTDAYWQILFSVLKVTRNLKELDLSGNSLSHSAVKSLCKTLRRPRCLLETLRLAGCGLTAEDCKDLAFGLRANQTLTELDLSFNVLTDAGAKHLCQRLRQPSCKLQRLQLVSCGLTSDCCQDLASVLSASPSLKELDLQQNNLDDVGVRLLCEGLRHPACKLIRLGLDQTTLSDEMRQELRALEQEKPQLLIFSRRKPSVMTPTEGLDTGEMSNSTSSLKRQRLGSERAASHVAQANLKLLDVSKIFPIAEIAEESSPEVVPVELLCVPSPASQGDLHTKPLGTDDDFWGPTGPVATEVVDKEKNLYRVHFPVAGSYRWPNTGLCFVMREAVTVEIEFCVWDQFLGEINPQHSWMVAGPLLDIKAEPGAVEAVHLPHFVALQGGHVDTSLFQMAHFKEEGMLLEKPARVELHHIVLENPSFSPLGVLLKMIHNALRFIPVTSVVLLYHRVHPEEVTFHLYLIPSDCSIRKAIDDLEMKFQFVRIHKPPPLTPLYMGCRYTVSGSGSGMLEILPKELELCYRSPGEDQLFSEFYVGHLGSGIRLQVKDKKDETLVWEALVKPGDLMPATTLIPPARIAVPSPLDAPQLLHFVDQYREQLIARVTSVEVVLDKLHGQVLSQEQYERVLAENTRPSQMRKLFSLSQSWDRKCKDGLYQALKETHPHLIMELWEKGSKKGLLPLSS
**Q.** With B1 as the binder, how does the binding read?
**A.** Its binding is “binds”.
